Source: patent US7049340B1, “Neuroprotective and retinoprotective ophthalmologic drugs” (priority 1999, dated 2006)

Test system: patients with glaucomatous neuropathy
Assay: Clinical treatment of glaucomatous neuropathy: visual acuity, automated perimetry, ocular tension
Assay type: in vivo, human
Conditions: Mean; for Short term fluctuation SF: normal 0..2
Protocol: The invention will now be illustrated by the following description of clinical examples which, of course, are not limiting in nature. In these examples the active principle, in particular ramipril, was administered continuously in an oral form, in an amount of 1.25 mg per day.
FIGS. 1 and 2 reproduce the fields of vision of the left eye; FIGS. 3 and 4 reproduce the field of vision of the right eye as perceived by one of the treated patients who suffered from glaucomatous neuropathy, respectively before treatment (FIGS. 1 and 3) and after treatment, 10 days later (FIGS. 2 and 4).
The grey scale provides an “image” of visual function, point by point, of different regions of the retina; the palest zones correspond to regions in which the visual functions are the least altered; the darkest zones correspond to those that have altered the most. […] A reduction in the darkest regions also indicates local visual recovery in regions that have become lighter.
The values that appear in the right hand portions of the figures correspond to the threshold values measured locally at set points in the retina. […] In contrast, the values that appear in the lower right hand portions of the figures correspond to local loss of vision in the zones concerned of the retina compared with the normal.
The Bebie curves also provide comparative images of the visual capacity of the subject under examination (lower curves) compared with the curves for normal or quasi-normal subjects (upper curves).

CCOC(=O)[C@H](CCc1ccccc1)N[C@@H](C)C(=O)N1[C@H](C(=O)O)C[C@@H]2CCC[C@@H]21 [ramipril]
Short term fluctuation SF (left eye after treatment (10 days), before 2.7): 3.0 dB^2
Reliability factor RF (left eye after treatment (10 days), before 4.9): 5.0%
Reliability factor RF (right eye after treatment (10 days), before 2.3): 2.3%
Short term fluctuation SF (right eye after treatment (10 days), before 3.0): 2.6 dB^2
